Our source for the binding values is paper PMC1561584.

B1: ARL-1(Q70L) (protein, UniProt Q20758 1-180)
chain: MGGVMSYFRGLFGAREMRILILGLDGAGKTTILYRLQVGEVVTTIPTIGFNVEQVEYKNLKFQVWDLGGLTSIRPYWRCYYANTDAIIYVVDSADRDRVGISRQELATMLQEDELQGAVLAVLANKQDIAGCLTETEVYKALGLDALRNRTIQIFKTSASKGEGLDPAMDWLANQLQQKK
B2: GAD-ARL-1 (protein, UniProt Q20758 1-180)
chain: MGGVMSYFRGLFGAREMRILILGLDGAGKTTILYRLQVGEVVTTIPTIGFNVEQVEYKNLKFQVWDLGGQTSIRPYWRCYYANTDAIIYVVDSADRDRVGISRQELATMLQEDELQGAVLAVLANKQDIAGCLTETEVYKALGLDALRNRTIQIFKTSASKGEGLDPAMDWLANQLQQKK
B3: GAD-ARL-3 (full length) (protein, UniProt O45379 1-184)
chain: MGLIDVLKSFKSPSGREIRILLLGLDNAGKTTILKQLSSEDVQHVTPTKGFNVKTVAAMGDIRLNVWDIGGQRSIRPYWSNYYENIDTLIFVIDSNDKKRFDEMNIELGELLDEEKLRKVPVLIFANKQDLVTAASSEEITRKLNLDLLRDRTWHIQACSALKNEGINDGITWVASNLKPASKK

No constants are given. Whether binding was seen depends on the method and setting.

In this assay the target is LexA-UNC-69 (C. elegans). Briefly: two-hybrid; LexA baits and GAD preys in strain L40; ONPG liquid β-galactosidase assays and auxotrophic (-His) growth assays.
B1: the binding result was “no binding”.

As for B2, the binding result was “no binding”.

On to B3, for which the binding entry was “no binding”.
